Data from the supplement of paper PMC10849652.
This is one part of the list.

Amino acid sequences for entries named in this document (tags omitted). A change or cut given only in a name is not applied to a line headed by its entry.
UniProt P22830: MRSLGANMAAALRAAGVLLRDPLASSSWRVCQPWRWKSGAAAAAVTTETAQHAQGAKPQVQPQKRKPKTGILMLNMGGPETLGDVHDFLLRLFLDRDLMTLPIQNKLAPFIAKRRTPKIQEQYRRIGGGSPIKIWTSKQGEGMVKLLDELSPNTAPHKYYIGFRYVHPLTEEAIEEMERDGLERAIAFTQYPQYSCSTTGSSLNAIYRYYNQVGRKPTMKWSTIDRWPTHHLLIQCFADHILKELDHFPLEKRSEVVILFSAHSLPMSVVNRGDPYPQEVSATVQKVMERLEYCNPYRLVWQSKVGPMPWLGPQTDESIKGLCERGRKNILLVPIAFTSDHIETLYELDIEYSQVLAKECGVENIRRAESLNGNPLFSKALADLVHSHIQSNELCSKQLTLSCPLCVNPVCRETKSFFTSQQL
UniProt Q9Y3I1: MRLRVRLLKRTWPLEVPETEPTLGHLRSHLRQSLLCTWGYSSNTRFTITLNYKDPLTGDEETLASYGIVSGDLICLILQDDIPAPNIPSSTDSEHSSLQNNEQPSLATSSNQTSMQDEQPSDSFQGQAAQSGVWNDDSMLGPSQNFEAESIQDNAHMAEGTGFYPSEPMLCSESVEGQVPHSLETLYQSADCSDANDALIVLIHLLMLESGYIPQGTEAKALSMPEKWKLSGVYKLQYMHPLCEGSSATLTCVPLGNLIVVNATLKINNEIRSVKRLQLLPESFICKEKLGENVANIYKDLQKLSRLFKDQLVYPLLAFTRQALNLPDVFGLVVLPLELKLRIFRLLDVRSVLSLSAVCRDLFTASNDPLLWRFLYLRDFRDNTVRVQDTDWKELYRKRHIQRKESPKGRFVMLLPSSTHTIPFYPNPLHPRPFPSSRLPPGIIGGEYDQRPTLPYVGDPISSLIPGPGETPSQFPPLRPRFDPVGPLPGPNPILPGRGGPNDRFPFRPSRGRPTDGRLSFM
UniProt Q9HA64: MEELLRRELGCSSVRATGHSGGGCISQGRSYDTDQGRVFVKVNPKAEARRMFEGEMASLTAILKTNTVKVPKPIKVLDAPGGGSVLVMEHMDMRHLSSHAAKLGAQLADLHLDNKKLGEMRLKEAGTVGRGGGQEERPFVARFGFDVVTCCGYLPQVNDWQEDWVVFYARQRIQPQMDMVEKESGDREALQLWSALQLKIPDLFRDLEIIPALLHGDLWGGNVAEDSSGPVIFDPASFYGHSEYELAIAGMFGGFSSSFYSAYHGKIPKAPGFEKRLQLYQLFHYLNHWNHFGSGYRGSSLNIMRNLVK
UniProt P10109: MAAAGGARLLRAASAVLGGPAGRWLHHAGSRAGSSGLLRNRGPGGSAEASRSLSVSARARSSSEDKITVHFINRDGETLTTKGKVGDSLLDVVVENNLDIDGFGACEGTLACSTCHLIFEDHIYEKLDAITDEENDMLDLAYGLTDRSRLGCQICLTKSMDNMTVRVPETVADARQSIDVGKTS
UniProt Q0JRZ9: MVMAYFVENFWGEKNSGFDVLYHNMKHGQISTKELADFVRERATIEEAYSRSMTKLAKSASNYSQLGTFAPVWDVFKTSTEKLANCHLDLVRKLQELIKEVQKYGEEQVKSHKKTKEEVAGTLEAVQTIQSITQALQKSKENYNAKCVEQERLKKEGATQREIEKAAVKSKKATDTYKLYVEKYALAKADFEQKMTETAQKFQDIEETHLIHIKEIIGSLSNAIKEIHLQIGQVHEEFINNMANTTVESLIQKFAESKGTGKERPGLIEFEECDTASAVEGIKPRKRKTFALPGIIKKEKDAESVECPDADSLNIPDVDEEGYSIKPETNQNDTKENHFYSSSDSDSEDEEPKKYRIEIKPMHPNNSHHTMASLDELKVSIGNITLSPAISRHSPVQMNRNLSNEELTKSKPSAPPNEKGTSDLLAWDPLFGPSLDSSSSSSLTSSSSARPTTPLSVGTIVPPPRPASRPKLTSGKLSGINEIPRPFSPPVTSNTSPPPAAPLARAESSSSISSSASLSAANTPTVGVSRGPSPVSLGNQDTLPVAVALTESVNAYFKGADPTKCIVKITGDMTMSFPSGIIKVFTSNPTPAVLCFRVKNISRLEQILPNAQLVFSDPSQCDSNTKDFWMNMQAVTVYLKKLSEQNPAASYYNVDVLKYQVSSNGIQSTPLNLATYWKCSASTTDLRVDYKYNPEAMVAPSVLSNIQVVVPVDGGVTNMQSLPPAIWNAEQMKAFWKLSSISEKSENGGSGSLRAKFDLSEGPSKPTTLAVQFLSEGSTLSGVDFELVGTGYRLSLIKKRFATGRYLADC
UniProt P22570: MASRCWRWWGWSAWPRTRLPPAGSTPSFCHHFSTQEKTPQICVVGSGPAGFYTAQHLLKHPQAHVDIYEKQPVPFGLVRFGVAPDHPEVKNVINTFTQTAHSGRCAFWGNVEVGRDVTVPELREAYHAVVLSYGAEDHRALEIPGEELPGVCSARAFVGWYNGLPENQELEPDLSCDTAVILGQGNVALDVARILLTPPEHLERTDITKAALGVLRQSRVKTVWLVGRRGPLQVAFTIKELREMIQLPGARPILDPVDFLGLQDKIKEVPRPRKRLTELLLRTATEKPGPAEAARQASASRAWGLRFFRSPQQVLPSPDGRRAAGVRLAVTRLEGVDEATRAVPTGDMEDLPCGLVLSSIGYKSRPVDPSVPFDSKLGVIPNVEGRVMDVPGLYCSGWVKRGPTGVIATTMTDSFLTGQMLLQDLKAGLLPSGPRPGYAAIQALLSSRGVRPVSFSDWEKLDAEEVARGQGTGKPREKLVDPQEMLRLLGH
UniProt P49327, whole entry, looked up: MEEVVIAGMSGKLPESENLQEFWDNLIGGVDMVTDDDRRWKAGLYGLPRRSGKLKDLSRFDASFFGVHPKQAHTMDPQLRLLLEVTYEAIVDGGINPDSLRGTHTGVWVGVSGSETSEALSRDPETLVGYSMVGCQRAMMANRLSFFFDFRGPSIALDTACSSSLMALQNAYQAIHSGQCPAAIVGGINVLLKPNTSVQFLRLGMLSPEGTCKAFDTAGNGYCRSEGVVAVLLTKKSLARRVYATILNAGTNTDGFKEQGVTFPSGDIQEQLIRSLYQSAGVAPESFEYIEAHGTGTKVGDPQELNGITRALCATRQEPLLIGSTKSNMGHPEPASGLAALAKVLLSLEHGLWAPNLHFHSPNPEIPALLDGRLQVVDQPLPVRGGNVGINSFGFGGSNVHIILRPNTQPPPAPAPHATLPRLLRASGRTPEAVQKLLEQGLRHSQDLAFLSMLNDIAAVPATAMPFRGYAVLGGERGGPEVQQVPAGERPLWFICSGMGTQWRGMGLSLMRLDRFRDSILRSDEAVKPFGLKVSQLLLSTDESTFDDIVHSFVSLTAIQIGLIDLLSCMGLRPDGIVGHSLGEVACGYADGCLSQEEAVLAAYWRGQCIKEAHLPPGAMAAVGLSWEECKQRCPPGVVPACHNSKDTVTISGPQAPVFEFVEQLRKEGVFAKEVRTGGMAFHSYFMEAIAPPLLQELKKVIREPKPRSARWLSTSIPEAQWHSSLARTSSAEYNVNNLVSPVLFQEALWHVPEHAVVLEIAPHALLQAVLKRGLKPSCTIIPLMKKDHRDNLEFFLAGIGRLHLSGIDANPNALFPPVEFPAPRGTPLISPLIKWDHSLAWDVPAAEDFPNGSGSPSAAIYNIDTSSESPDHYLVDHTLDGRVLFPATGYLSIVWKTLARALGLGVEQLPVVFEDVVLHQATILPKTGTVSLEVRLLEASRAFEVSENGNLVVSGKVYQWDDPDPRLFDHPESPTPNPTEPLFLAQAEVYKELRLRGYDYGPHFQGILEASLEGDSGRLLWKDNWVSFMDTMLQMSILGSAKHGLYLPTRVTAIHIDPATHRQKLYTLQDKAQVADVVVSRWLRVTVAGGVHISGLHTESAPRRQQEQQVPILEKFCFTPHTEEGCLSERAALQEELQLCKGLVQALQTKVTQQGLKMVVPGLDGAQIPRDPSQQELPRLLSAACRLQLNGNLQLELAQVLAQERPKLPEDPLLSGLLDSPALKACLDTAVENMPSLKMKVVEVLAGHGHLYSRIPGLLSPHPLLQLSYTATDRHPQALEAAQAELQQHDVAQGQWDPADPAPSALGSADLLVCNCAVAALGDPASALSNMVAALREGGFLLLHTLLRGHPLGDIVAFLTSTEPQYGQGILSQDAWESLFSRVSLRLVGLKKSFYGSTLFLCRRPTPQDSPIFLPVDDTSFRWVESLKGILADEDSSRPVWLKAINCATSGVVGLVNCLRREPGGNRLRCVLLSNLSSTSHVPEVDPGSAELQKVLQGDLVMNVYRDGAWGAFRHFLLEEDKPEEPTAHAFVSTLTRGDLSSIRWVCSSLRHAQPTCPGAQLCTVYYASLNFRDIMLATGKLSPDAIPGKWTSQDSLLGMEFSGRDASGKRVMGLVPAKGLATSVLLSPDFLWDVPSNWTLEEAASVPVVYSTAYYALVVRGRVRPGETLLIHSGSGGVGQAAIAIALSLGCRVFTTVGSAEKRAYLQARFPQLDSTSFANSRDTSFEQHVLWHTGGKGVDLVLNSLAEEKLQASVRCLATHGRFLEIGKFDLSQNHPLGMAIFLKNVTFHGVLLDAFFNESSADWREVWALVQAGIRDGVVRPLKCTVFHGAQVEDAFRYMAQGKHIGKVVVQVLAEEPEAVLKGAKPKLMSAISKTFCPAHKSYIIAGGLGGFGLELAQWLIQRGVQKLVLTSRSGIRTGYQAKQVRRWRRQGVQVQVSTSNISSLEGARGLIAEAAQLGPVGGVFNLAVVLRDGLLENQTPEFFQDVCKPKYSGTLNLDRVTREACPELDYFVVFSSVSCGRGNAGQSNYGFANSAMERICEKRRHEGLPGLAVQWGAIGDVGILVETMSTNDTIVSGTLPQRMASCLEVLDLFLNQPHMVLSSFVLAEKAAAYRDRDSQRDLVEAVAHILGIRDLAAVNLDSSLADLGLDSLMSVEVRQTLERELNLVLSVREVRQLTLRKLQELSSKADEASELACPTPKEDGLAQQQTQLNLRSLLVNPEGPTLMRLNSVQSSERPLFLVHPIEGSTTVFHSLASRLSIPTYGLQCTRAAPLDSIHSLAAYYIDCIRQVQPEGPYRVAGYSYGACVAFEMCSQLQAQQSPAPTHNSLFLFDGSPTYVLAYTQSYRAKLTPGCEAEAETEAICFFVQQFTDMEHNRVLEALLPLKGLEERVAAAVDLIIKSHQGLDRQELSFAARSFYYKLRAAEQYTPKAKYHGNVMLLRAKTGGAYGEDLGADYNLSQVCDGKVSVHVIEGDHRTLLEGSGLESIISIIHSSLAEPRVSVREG
UniProt Q8NB91: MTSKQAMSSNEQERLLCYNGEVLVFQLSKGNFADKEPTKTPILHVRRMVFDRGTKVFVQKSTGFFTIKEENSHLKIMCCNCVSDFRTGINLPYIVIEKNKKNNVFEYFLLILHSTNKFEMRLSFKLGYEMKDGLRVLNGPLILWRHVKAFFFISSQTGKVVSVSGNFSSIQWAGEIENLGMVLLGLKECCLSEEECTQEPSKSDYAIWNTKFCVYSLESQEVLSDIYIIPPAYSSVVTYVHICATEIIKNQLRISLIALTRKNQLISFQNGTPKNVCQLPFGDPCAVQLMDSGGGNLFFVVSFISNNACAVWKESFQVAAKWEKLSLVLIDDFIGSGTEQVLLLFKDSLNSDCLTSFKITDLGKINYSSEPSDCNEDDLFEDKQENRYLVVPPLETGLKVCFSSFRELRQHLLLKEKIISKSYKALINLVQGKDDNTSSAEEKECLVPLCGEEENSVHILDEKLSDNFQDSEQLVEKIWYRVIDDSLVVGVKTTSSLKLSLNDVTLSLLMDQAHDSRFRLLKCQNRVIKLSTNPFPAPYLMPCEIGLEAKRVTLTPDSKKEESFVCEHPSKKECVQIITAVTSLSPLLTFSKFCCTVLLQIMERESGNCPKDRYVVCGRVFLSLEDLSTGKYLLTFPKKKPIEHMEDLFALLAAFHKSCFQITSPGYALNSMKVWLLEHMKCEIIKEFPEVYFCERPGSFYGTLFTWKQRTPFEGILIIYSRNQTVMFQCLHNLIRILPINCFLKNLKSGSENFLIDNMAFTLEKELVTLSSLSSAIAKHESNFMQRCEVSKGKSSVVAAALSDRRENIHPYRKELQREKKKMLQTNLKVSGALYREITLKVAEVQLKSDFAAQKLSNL
UniProt Q9UKT5: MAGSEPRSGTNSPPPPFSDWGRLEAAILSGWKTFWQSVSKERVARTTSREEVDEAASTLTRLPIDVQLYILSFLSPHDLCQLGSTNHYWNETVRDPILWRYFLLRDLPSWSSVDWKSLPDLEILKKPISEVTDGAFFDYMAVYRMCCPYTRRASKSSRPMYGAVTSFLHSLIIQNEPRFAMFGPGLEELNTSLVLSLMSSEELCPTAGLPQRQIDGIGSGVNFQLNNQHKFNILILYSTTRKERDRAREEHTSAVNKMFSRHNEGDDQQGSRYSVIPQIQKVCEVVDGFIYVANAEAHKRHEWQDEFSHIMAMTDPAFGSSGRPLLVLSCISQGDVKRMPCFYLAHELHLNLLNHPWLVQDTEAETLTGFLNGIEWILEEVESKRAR

Assays:
Test in all cases: log2 fold change, soluble protein after heating vs DMSO (PISA); higher = thermal stabilisation; K562 lysate, 10 uM; active = over 0.2 and 3.5 SD of the protein, either way, in both replicates (recomputed)
[1] = compound: CCCS(=O)(=O)Nc1ccc(F)c(C(=O)c2c[nH]c3ncc(-c4ccc(Cl)cc4)cc23)c1F [vemurafenib]
Outline: (§1)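 Values give the log-two fold change in thermal stability against solvent controls, from duplicates. Crude K562 extract at 1 mg/mL protein, made by dounce homogenisation in PBS pH 7.4 with 1 mM MgCl2, was treated with 10 μM compound for 30 min. After 3 min heating across 48°C-58°C, aliquots were pooled, adjusted to 0.5% NP-40 at 4°C and centrifuged at 21,000xg for 90 min. The supernatant was measured by TMTpro 16plex LC-MS/MS with channel sums equalised.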

[2] = compound: CCCS(=O)(=O)Nc1ccc(F)c(C(=O)c2c[nH]c3ncc(Cl)cc23)c1F
Outline: as §1

[3] = compound: CCN(CCCOc1ccc2c(Nc3cc(CC(=O)Nc4cccc(F)c4)[nH]n3)ncnc2c1)CCOP(=O)(O)O [barasertib]
Outline: as §1

[4] = compound: CC[C@@H]1C(=O)N(C)c2cnc(Nc3ccc(C(=O)NC4CCN(C)CC4)cc3OC)nc2N1C1CCCC1
Outline: as §1

[5] = compound: CC[C@@H]1C(=O)N(C)c2cnc(Nc3ccc(C(=O)N[C@H]4CC[C@H](N5CCN(CC6CC6)CC5)CC4)cc3OC)nc2N1C(C)C [volasertib]
Outline: as §1

[6] = compound: CCn1c(C(=O)N(C2CC2)C2CC2)cc2c3c(ncn3C)c(Nc3cc(C)n(C)n3)nc21
Outline: as §1

[7] = compound: CCn1cc(-c2ccnc3[nH]c(-c4cccc(CN(C)C)c4)cc23)c(-c2ccc(NC(=O)N(C)C)cc2)n1
Outline: as §1

[8] = compound: CN1CCC(CNc2ccc3ncc(-c4cccc(OC(F)(F)F)c4)n3n2)CC1
Outline: as §1

[9] = compound: CN1CCN(CCOc2cc(OC3CCOCC3)c3c(Nc4c(Cl)ccc5c4OCO5)ncnc3c2)CC1 [saracatinib]
Outline: as §1

[10] = compound: CN1CCN(c2nc(C3=C(c4c[nH]c5ccccc45)C(=O)NC3=O)c3ccccc3n2)CC1 [sotrastaurin]
Outline: as §1

[11] = compound: CN1CC[C@H](c2c(O)cc(O)c3c(=O)cc(-c4ccccc4Cl)oc23)[C@H](O)C1 [alvocidib]
Outline: as §1

[12] = compound: CN1CCc2c(c3ccccc3n2Cc2ccc(C(=O)NO)cc2)C1 [Tubastatin A]
Outline: as §1

[13] = compound: CNC(=O)C1=CC=CC=C1NC2=NC(=NC=C2Cl)NC3=C(C=C(C=C3)N4CCOCC4)OC
Outline: as §1

[14] = compound: CNC(=O)c1ccc(Nc2ncc(C(F)(F)F)c(NCc3nccnc3N(C)S(C)(=O)=O)n2)cc1 [defactinib]
Outline: as §1

[15] = compound: CNc1nc(-c2ccc3c(N)n[nH]c3c2)cc(N2C[C@@H](C(=O)NC3CCCCC3)CC[C@H]2C)n1
Outline: as §1

[16] = compound: COC(=O)N[C@@H](C)CNc1nccc(-c2cn(C(C)C)nc2-c2cc(Cl)cc(NS(C)(=O)=O)c2F)n1 [encorafenib]
Outline: as §1

[17] = compound: COC(=O)[C@H](CCSC)NC(=O)C1=C(C=C(C=C1)NC[C@H](CS)N)C2=CC=CC=C2
Outline: as §1

[18] = compound: COc1cc(Nc2ncc3c(n2)-c2ccc(Cl)cc2C(c2c(F)cccc2OC)=NC3)ccc1C(=O)O [alisertib]
Outline: as §1

[19] = compound: COc1cc2nc(-c3cc(F)ccc3O)nc(N[C@@H]3CNC[C@H]3C(C)(C)O)c2cc1OC
Outline: as §1

[20] = compound: COc1cc2ncnc(Nc3ccc(F)c(Cl)c3)c2cc1OCCCN1CCOCC1 [gefitinib]
Outline: as §1

Measured: log2 fold change

FBLL1 (UniProt A6NHQ2)
active: [7] -0.307
inactive: [1] 0.081 | [2] 0.019 | [3] 0.107 | [4] 0.003 | [5] -0.041 | [6] -0.014 | [8] 0.046 | [9] -0.075 | [10] 0.056 | [11] -0.009 | [12] -0.049 | [13] -0.036 | [14] 0.047 | [15] 0.081 | [16] 0.042 | [17] 0.056 | [18] 0.012 | [19] 0.005 | [20] 0.035

FNTB (UniProt P49356)
active: [4] 0.285
inactive: [1] 0.055 | [2] -0.009 | [3] -0.036 | [5] 0.005 | [6] 0.037 | [7] -0.036 | [8] 0.016 | [9] 0.016 | [10] 0.042 | [11] -0.003 | [12] 0.048 | [13] -0.019 | [14] 0.026 | [15] -0.056 | [16] -0.046 | [17] 0.131 | [18] -0.034 | [19] -0.007 | [20] -0.031

FECH isoform 2 (UniProt P22830)
inactive: [1] 0.363 | [3] -0.082 | [4] 0.477 | [5] 0.078 | [6] -0.03 | [7] 0.128 | [8] 0.699 | [9] -0.287 | [10] 0.014 | [11] 0.028 | [12] -0.123 | [13] 0.485 | [14] -0.056 | [15] 0.664 | [16] -0.064 | [17] -0.091 | [18] -0.191 | [19] 0.225 | [20] 0.503
active: [2] -0.891

FBXO7 (UniProt Q9Y3I1)
inactive: [1] -0.007 | [2] 0.017 | [3] 0.003 | [4] 0.041 | [5] 0.01 | [6] 0.029 | [7] -0.066 | [8] 0.063 | [9] -0.019 | [10] -0.053 | [11] -0.075 | [12] -0.003 | [13] 0.005 | [14] -0.011 | [15] 0.019 | [16] 0.024 | [17] -0.005 | [18] -0.057 | [19] 0.008 | [20] -0.017

FN3KRP (UniProt Q9HA64)
inactive: [1] -0.002 | [2] 0 | [3] -0.032 | [4] 0.015 | [5] 0.011 | [6] -0.003 | [7] -0.036 | [8] 0.036 | [9] 0.035 | [10] 0.002 | [11] 0.02 | [12] 0.046 | [13] -0.006 | [14] 0.04 | [15] 0.012 | [16] -0.011 | [17] -0.063 | [18] -0.061 | [19] 0.015 | [20] 0.02

FDX1 (UniProt P10109)
inactive: [1] -0.01 | [2] 0.017 | [3] 0.134 | [4] 0.015 | [5] 0.037 | [6] 0.032 | [7] -0.024 | [8] -0.009 | [9] 0.038 | [10] -0.071 | [11] -0.009 | [12] 0.028 | [13] -0.153 | [14] -0.059 | [15] -0.001 | [16] -0.035 | [17] 0.047 | [18] 0.009 | [19] -0.027 | [20] -0.113

FCHO2 (UniProt Q0JRZ9)
inactive: [1] -0.044 | [2] 0.043 | [3] -0.01 | [4] 0.067 | [5] 0.016 | [6] -0.051 | [7] 0.019 | [8] -0.041 | [9] 0.018 | [10] -0.008 | [11] -0.002 | [12] -0.013 | [13] 0.025 | [14] 0.03 | [15] -0.008 | [16] -0.045 | [17] 0.03 | [18] 0.004 | [19] -0.03 | [20] -0.046

FDXR isoform 7 (UniProt P22570)
inactive: [1] 0.072 | [2] 0.02 | [3] -0.037 | [4] -0.016 | [5] -0.039 | [6] 0.025 | [7] -0.087 | [8] -0.016 | [9] 0.022 | [10] 0.043 | [11] 0.028 | [12] -0.07 | [13] 0.009 | [14] 0.009 | [15] 0.016 | [16] -0.012 | [17] 0.165 | [18] 0.007 | [19] -0.025 | [20] -0.012

FBXO2 (UniProt Q9UK22)
inactive: [1] 0.222 | [2] 0.04 | [3] 0.115 | [4] 0.026 | [5] -0.054 | [6] 0.003 | [7] 0.131 | [8] -0.027 | [9] -0.149 | [10] 0.008 | [11] -0.002 | [12] -0.089 | [13] 0.141 | [14] -0.122 | [15] -0.101 | [16] -0.046 | [17] 0.071 | [18] 0.153 | [19] 0.074 | [20] 0.118

Looked up one by one from the entries so far, 2 records:
FN3KRP (UniProt Q9HA64)
inactive: [1] -0.002 | [2] 0 | [3] -0.032 | [4] 0.015 | [5] 0.011 | [6] -0.003 | [7] -0.036 | [8] 0.036 | [9] 0.035 | [10] 0.002 | [11] 0.02 | [12] 0.046 | [13] -0.006 | [14] 0.04 | [15] 0.012 | [16] -0.011 | [17] -0.063 | [18] -0.061 | [19] 0.015 | [20] 0.02

FCHO2 (UniProt Q0JRZ9)
inactive: [1] -0.044 | [2] 0.043 | [3] -0.01 | [4] 0.067 | [5] 0.016 | [6] -0.051 | [7] 0.019 | [8] -0.041 | [9] 0.018 | [10] -0.008 | [11] -0.002 | [12] -0.013 | [13] 0.025 | [14] 0.03 | [15] -0.008 | [16] -0.045 | [17] 0.03 | [18] 0.004 | [19] -0.03 | [20] -0.046

Remaining list, next part.

FASN (UniProt P49327)
inactive: [1] -0.022 | [2] 0.029 | [3] 0.02 | [4] -0.037 | [5] -0.016 | [6] 0.005 | [7] -0.036 | [8] 0.009 | [9] -0.002 | [10] -0.014 | [11] 0.011 | [12] -0.026 | [13] 0.015 | [14] 0.009 | [15] 0.013 | [16] -0.001 | [17] 0.022 | [18] 0.004 | [19] 0.001 | [20] -0.019

FEZ2 isoform 2 (UniProt Q9UHY8)
inactive: [1] 0.012 | [2] 0.03 | [3] -0.05 | [4] 0.02 | [5] 0.037 | [6] 0.023 | [7] -0.026 | [8] 0.022 | [9] -0.057 | [10] 0.039 | [11] -0.003 | [12] -0.052 | [13] -0.041 | [14] 0.037 | [15] 0.011 | [16] 0.028 | [17] -0.017 | [18] -0.06 | [19] -0.015 | [20] 0.02

FANCB (UniProt Q8NB91)
inactive: [1] -0.048 | [2] 0.03 | [3] 0.019 | [4] -0.052 | [5] 0.005 | [6] -0.005 | [7] -0.05 | [8] 0.046 | [9] 0.103 | [10] 0.04 | [11] -0.013 | [12] -0.086 | [13] 0.017 | [14] 0.055 | [15] -0.017 | [16] 0.029 | [17] -0.142 | [18] -0.004 | [19] 0.094 | [20] 0.1

FBXO4 (UniProt Q9UKT5)
inactive: [1] -0.022 | [2] 0.001 | [3] 0.01 | [4] 0.023 | [5] -0.018 | [6] 0.031 | [7] -0.074 | [8] -0.021 | [9] -0.019 | [10] 0.022 | [11] -0.005 | [12] -0.113 | [13] 0.052 | [14] 0.006 | [15] -0.012 | [16] 0.005 | [17] 0.02 | [18] -0.04 | [19] 0.015 | [20] 0.027

FCSK (UniProt Q8N0W3)
inactive: [1] -0.004 | [2] 0.017 | [3] 0.052 | [4] 0.004 | [5] -0.002 | [6] -0.013 | [7] -0.123 | [8] 0.049 | [9] -0.008 | [10] -0.01 | [11] -0.048 | [12] 0.034 | [13] -0.016 | [14] -0.04 | [15] 0.003 | [16] -0.015 | [17] 0 | [18] 0.013 | [19] 0.007 | [20] 0.003

FKBP1A (UniProt P62942)
inactive: [1] -0.138 | [2] -0.028 | [3] 0.092 | [4] 0.107 | [5] 0.163 | [6] -0.036 | [8] 0.146 | [9] 0.052 | [10] -0.017 | [11] -0.296 | [12] 0.047 | [13] 0.06 | [14] 0.144 | [15] 0.034 | [16] 0.005 | [17] -0.061 | [18] 0.105 | [19] -0.076 | [20] -0.003
active: [7] -0.854

FER (UniProt P16591)
inactive: [1] -0.01 | [2] -0.224 | [3] 0.191 | [4] 0.069 | [5] -0.004 | [6] -0.042 | [7] -0.173 | [8] 0.189 | [9] -0.006 | [10] 0.327 | [11] -0.044 | [12] 0.048 | [13] 0.511 | [14] 0.083 | [15] -0.108 | [16] -0.072 | [17] 0.03 | [18] -0.399 | [19] -0.108 | [20] 0.95
